Structures can show the parent of a compound that is named as a salt. ± gives the standard deviation of the averaged measurements. This is one part of the list. Values are raw readings; no control value is given beside them.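 HeLa cells imaged for ribosome-assembly readouts (ENP1 staining with or without export block, or inducible tagged ribosomal protein reporters); machine learning classified each cell's signal location against solvent (DMSO) controls. Hits exceeded the DMSO false-positive mean by five standard deviations, then were visually confirmed; three biological replicates.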
How the values were obtained:
[1] = system: HeLa K (ENP1 immunofluorescence, +LMB); experiment: fraction of cells with nucleolar or nucleolar/nucleoplasmic ENP1 signal (MainHitrate); higher = more cells with nucleolar/nuclear readout signal (for ENP1 -LMB: less RNAPI inhibition; for +LMB ENP1 and RP reporters: stronger nuclear/nucleolar retention, i.e. ribosome biogenesis defect); conditions: concentration: 1 µM; treatment time: 6 h; ENP1 +LMB; leptomycin B: 20 nM, last 1.5 h
[2] = system: HeLa K (ENP1 immunofluorescence, no LMB); experiment: as above; conditions: concentration: 1 µM; treatment time: 6 h; ENP1 -LMB; leptomycin B: none
HeLa RPS2-YFP reporter = experiment: fraction of reporter-positive cells with nuclear (nucleolar or nucleolar/nucleoplasmic) RPS2-YFP (MainHitrate); higher = more cells with nucleolar/nuclear readout signal (for ENP1 -LMB: less RNAPI inhibition; for +LMB ENP1 and RP reporters: stronger nuclear/nucleolar retention, i.e. ribosome biogenesis defect); conditions: concentration: 1 µM; treatment time: 6 h
HeLa RPL29-GFP reporter = experiment: fraction of reporter-positive cells with nuclear (nucleolar or nucleolar/nucleoplasmic) RPL29-GFP (MainHitrate); higher = more cells with nucleolar/nuclear readout signal (for ENP1 -LMB: less RNAPI inhibition; for +LMB ENP1 and RP reporters: stronger nuclear/nucleolar retention, i.e. ribosome biogenesis defect); conditions: concentration: 1 µM; treatment time: 6 h

Structure (SMILES)	fraction [1]	fraction [2]	fraction of reporter-positive cells with nuclear (HeLa RPS2-YFP reporter)	fraction of reporter-positive cells with nuclear (HeLa RPL29-GFP reporter)
CN(C)CCCSC(=N)N [Dimaprit 2HCl]	0.0514 ± 0.056	0.99948 ± 0.0009	0.149 ± 0.17	0.299 ± 0.22
CC1(C)S[C@@H]2[C@H](NC(=O)Cc3ccccc3)C(=O)N2[C@H]1C(=O)O [Benzylpenicillin sodium]	0.045 ± 0.066	0.982 ± 0.03	0.0936 ± 0.07	0.206 ± 0.023
C[C@@]12C[C@@]3(O)O[C@@H](O1)[C@]1(COC(=O)c4ccccc4)[C@H]3C[C@@]12O[C@@H]1O[C@H](CO)[C@@H](O)[C@H](O)[C@H]1O [Paeoniflorin]	0.177 ± 0.28	0.993 ± 0.012	0.116 ± 0.078	0.215 ± 0.09
CN1CCC(=C2c3ccccc3CCc3sccc32)CC1 [Pizotifen malate]	0.127 ± 0.11	0.9981 ± 0.0033	0.136 ± 0.083	0.199 ± 0.085
CCC[C@@H]1C[C@@H](C(=O)N[C@@H]([C@H]2O[C@H](SC)[C@H](OP(=O)(O)O)[C@@H](O)[C@H]2O)[C@H](C)Cl)N(C)C1 [Clindamycin phosphate]	0.184 ± 0.28	0.993 ± 0.011	0.112 ± 0.041	0.238 ± 0.078
CC(=O)Oc1cc2c(s1)CCN(C(C(=O)C1CC1)c1ccccc1F)C2 (stereo not given) [Prasugrel (Effient)]	0.157 ± 0.15	0.9987 ± 0.0023	0.131 ± 0.085	0.2 ± 0.082
Cn1c(=O)c2c(ncn2CC2OCCO2)n(C)c1=O [Doxofylline]	0.101 ± 0.14	0.968 ± 0.055	0.126 ± 0.083	0.222 ± 0.063
C#C[C@]1(O)CC[C@H]2[C@@H]3CCc4cc(OC)ccc4[C@H]3CC[C@@]21C [Mestranol]	0.118 ± 0.16	0.993 ± 0.013	0.113 ± 0.088	0.227 ± 0.057
N[C@@H]1CN(c2c(F)cc3c(=O)c(C(=O)O)cn([C@@H]4C[C@@H]4F)c3c2Cl)CC12CC2 [Sitafloxacin hydrate]	0.156 ± 0.23	0.991 ± 0.015	0.12 ± 0.067	0.227 ± 0.071
CC1=C(CC(=O)O)c2cc(F)ccc2/C1=C\c1ccc([S+](C)[O-])cc1 (stereo not given) [Sulindac (Clinoril)]	0.0905 ± 0.12	0.993 ± 0.012	0.0956 ± 0.032	0.225 ± 0.083
C#CCC(Cc1cnc2nc(N)nc(N)c2n1)c1ccc(C(=O)N[C@@H](CCC(=O)O)C(=O)O)cc1 (stereo not given in full) [Pralatrexate (Folotyn)]	0.0593 ± 0.052	0.9984 ± 0.0028	0.106 ± 0.09	0.174 ± 0.039
CC(C(=O)O)c1ccc2c(c1)CC(=O)c1ccccc1S2 (stereo not given) [Zaltoprofen]	0.0966 ± 0.12	0.986 ± 0.024	0.137 ± 0.12	0.225 ± 0.064
CCCN[C@H]1CCc2nc(N)sc2C1 [Pramipexole dihydrochloride monohydrate]	0.101 ± 0.14	0.992 ± 0.015	0.13 ± 0.047	0.219 ± 0.069
CNC1CCCN(c2c(F)cc3c(=O)c(C(=O)O)cn(C4CC4)c3c2OC)C1 (stereo not given) [Balofloxacin]	0.118 ± 0.17	0.987 ± 0.023	0.113 ± 0.069	0.228 ± 0.06
CCCc1nn(C)c2c(=O)[nH]c(-c3cc(S(=O)(=O)N4CCN(C)CC4)ccc3OCC)nc12 [Sildenafil citrate]	0.0911 ± 0.12	0.9989 ± 0.002	0.114 ± 0.08	0.235 ± 0.08
C=C(c1ccc(C(=O)O)cc1)c1cc2c(cc1C)C(C)(C)CCC2(C)C [Bexarotene]	0.104 ± 0.16	0.9971 ± 0.005	0.0934 ± 0.075	0.222 ± 0.071
CC(C)OC(=O)C(C(=O)OC(C)C)=C1SC=CS1 [Malotilate]	0.0766 ± 0.068	0.9982 ± 0.0031	0.0907 ± 0.057	0.211 ± 0.057
CN1[C@@H]2CC[C@H]1C[C@@H](OC(c1ccccc1)c1ccccc1)C2 [Benztropine mesylate]	0.0927 ± 0.14	0.994 ± 0.011	0.136 ± 0.12	0.226 ± 0.073
COC(=O)C1=CO[C@@H](O[C@@H]2O[C@H](CO)[C@@H](O)[C@H](O)[C@H]2O)[C@@H]2C(CO)=CC[C@H]12 [Geniposide]	0.129 ± 0.2	0.993 ± 0.012	0.105 ± 0.057	0.22 ± 0.086
N=C(N)NC(=N)N1CCOCC1 [Moroxydine]	0.0873 ± 0.11	0.991 ± 0.016	0.109 ± 0.08	0.218 ± 0.063
OC(CCN1CCCCC1)(c1ccccc1)c1ccccc1 [Pridinol Methanesulfonate]	0.23 ± 0.29	0.9978 ± 0.0039	0.187 ± 0.19	0.286 ± 0.24
Cc1ccc2c(Cl)cc(Cl)c(O)c2n1 [Chlorquinaldol]	0.0785 ± 0.098	0.979 ± 0.036	0.118 ± 0.092	0.21 ± 0.06
COC(c1ccccc1)(c1ccccc1)[C@H](Oc1nc(C)cc(C)n1)C(=O)O [Ambrisentan]	0.0479 ± 0.061	0.9952 ± 0.0083	0.0921 ± 0.076	0.189 ± 0.057
CC1COc2c(N3CCN(C)CC3)c(F)cc3c(=O)c(C(=O)O)cn1c23 (stereo not given) [Ofloxacin (Floxin)]	0.0495 ± 0.022	0.9974 ± 0.0045	0.099 ± 0.087	0.201 ± 0.036
CN(CCOc1ccc(CC2SC(=O)NC2=O)cc1)c1ccccn1 (stereo not given) [Rosiglitazone maleate]	0.133 ± 0.2	0.9974 ± 0.0045	0.101 ± 0.08	0.204 ± 0.077

Entries of single compounds, quoted from the list.
`CCCN[C@H]1CCc2nc(N)sc2C1` [Pramipexole dihydrochloride monohydrate] as listed: fraction [1]: 0.101 ± 0.14; fraction [2]: 0.992 ± 0.015; fraction of reporter-positive cells with nuclear (HeLa RPS2-YFP reporter): 0.13 ± 0.047; fraction of reporter-positive cells with nuclear (HeLa RPL29-GFP reporter): 0.219 ± 0.069
`CC1COc2c(N3CCN(C)CC3)c(F)cc3c(=O)c(C(=O)O)cn1c23` (stereo not given) [Ofloxacin (Floxin)] as listed: fraction [1]: 0.0495 ± 0.022; fraction [2]: 0.9974 ± 0.0045; fraction of reporter-positive cells with nuclear (HeLa RPS2-YFP reporter): 0.099 ± 0.087; fraction of reporter-positive cells with nuclear (HeLa RPL29-GFP reporter): 0.201 ± 0.036

— the supplement of paper PMC12542422
